Earlier results as cited in patent publication US12350251B2, “Sexual health enhancement composition” (Rev Pharmaceuticals, Inc., priority 2016, dated 2025).
For at least one compound, name, drawing or mass did not settle the structure.

Assays:
human CC = conditions: in vitro, alone; read-out: EC50 of relaxation of human CC
[1] = three rabbits
canine corporeal tissue = conditions: in vitro
[2] = intracavernosal administration, canine model

SMILES: C=C[C@@]1(C)CC(=O)[C@]2(O)[C@@]3(C)[C@@H](O)CCC(C)(C)[C@@H]3[C@H](O)[C@H](OC(C)=O)[C@@]2(C)O1 [forskolin]
- EC50 (human CC): ~0.2 µM
- equilibrium intracavernosal pressure and duration of erection [1]: dose dependent increase
- smooth muscle relaxation (canine corporeal tissue): induce smooth muscle relaxation
- penile erection [2]: penile erection after intracavernosal administration
